# Test system: U87MG tumors
# Assay: Small-animal static PET in U87MG tumor-bearing mice
# Format: in vivo
# Conditions: 1 h after injection
# Description: All animal experimental procedures were approved by the Animal Care and Ethics Committee of Xiamen University and performed in accordance with the Guidelines for the Care and Use of Animals of the Xiamen University Laboratory Animal Center. For in vivo experiments, 6-wk-old BALB/c nude mice (Beijing Vital River Laboratory Animal Technology Co., Ltd.) were subcutaneously inoculated with HT-1080-FAP or U87 cells (5 × 10^6 in 100 μL of phosphate-buffered saline) in the right shoulder.
# Dynamic PET, static PET (with or without competition), and SPECT scans with radiolabeled monomeric, dimeric, and tetrameric FAPIs were performed on HT-1080-FAP tumor–bearing mice for pharmacokinetic evaluation. Additionally, static PET with ^68Ga-labeled monomeric, dimeric, and tetrameric FAPIs was performed and compared in U87MG tumor–bearing mice.
# Approximately 7.4 MBq of ^68Ga-DOTA-4P(FAPI)4 was intravenously injected into HT-1080-FAP tumor–bearing mice (n = 3) for the 60-min dynamic PET. For multiple-time-point static PET (0.5, 1, 2, and 4 h after injection), 7.4 MBq of ^68Ga-FAPI-46, ^68Ga-DOTA-2P(FAPI)2, or ^68Ga-DOTA-4P(FAPI)4 were injected into HT-1080-FAP and U87MG tumor–bearing mice (3/group). For longer-term observation, HT-1080-FAP tumor–bearing mice were intravenously injected with 7.4 MBq of ^64Cu-NOTA-2P(FAPI)2 or ^64Cu-NOTA-4P(FAPI)4 (3/group). […]
smiles,measurement,value
CN(CCCN1CCN(C(=O)COCCOCCOCCNC(=O)CCC(=O)NCCCC[C@H](NC(=O)CCC(=O)NCCOCCOCCOCC(=O)N2CCN(CCCN(C)c3ccc4nccc(C(=O)NCC(=O)N5CC(F)(F)C[C@H]5C#N)c4c3)CC2)C(=O)NCCCC[C@H](NC(=O)[C@H](CCCCNC(=O)CN2CCN(CC(=O)[O-])CCN(CC(=O)[O-])CCN(CC(=O)[O-])CC2)NC(=O)CCC(=O)NCCOCCOCCOCC(=O)N2CCN(CCCN(C)c3ccc4nccc(C(=O)NCC(=O)N5CC(F)(F)C[C@H]5C#N)c4c3)CC2)C(=O)NCCOCCOCCOCC(=O)N2CCN(CCCN(C)c3ccc4nccc(C(=O)NCC(=O)N5CC(F)(F)C[C@H]5C#N)c4c3)CC2)CC1)c1ccc2nccc(C(=O)NCC(=O)N3CC(F)(F)C[C@H]3C#N)c2c1.[68Ga+3] [^68Ga-DOTA-4P(FAPI)4],tumor uptake relative to ^68Ga-DOTA-2P(FAPI)2,approximately 2 fold
same,tumor uptake relative to ^68Ga-FAPI-46,more than 4 fold
